Test results as given in PubChem BioAssay AID652054 (National Center for Advancing Translational Sciences (NCATS), 2013).
The campaign covered roughly 360,000 compounds. About 9,100 (2.5%) were called active. The shares of active, inactive and inconclusive entries below differ from those in the screen. Cut-off read from the data, not from the text of the source: active = max response below about -50%; inconclusive = no clear call, values can overlap the other calls; inactive = above that.

Protein sequences, listed by entry. Tags and fused reporters are not part of them.
UniProt P35462, whole entry, looked up: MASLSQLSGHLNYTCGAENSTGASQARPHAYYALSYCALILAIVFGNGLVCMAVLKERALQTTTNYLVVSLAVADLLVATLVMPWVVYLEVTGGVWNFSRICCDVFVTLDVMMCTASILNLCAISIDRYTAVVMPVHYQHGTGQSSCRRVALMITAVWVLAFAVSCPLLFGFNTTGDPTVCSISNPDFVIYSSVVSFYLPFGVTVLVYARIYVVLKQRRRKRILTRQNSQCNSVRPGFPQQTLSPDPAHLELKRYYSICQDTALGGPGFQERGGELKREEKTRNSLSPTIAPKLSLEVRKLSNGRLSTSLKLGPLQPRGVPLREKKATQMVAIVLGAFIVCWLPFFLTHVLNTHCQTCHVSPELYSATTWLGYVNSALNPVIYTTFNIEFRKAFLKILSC

These molecules were tested against D(3) dopamine receptor (Homo sapiens) (UniProt P35462) (assay: qHTS of D3 Dopamine Receptor Antagonist: qHTS). Details: D3R cells, DiscoveRx beta-arrestin luminescence, antagonist mode; stronger effect = lower value.
Summary of the method: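 Cells expressing the human receptor were seeded at 1500 cells/well, incubated overnight at 37 degrees C in 5% CO2, then exposed to library compounds with dopamine controls for 90 minutes at 37 degrees C before luminescent detection.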
% is set by controls: 0 for no effect and ±100 for the full control effect.

Max response, negative = inhibition, inactive:
CC12CC3CC(C)(C1)CC(C(=O)NCc1ccncc1)(C3)C2 29.6%
O=C(Nc1nc(-c2ccc(S(=O)(=O)N3CCCC3)cc2)cs1)C1COc2ccccc2O1 (stereo not drawn) 27.2%
Cc1ccc(S(=O)(=O)NCCCCCC(=O)NC(C)(C)CO)cc1 23.1%
CCOC(=O)Nc1ccc2c(c1)N(C(=O)CCN1CCOCC1)c1ccccc1S2=O (stereo not drawn) -15.3%
O=C(CCCN1C(=O)C2CCCCN2C1=O)N1CCN(c2ccc([N+](=O)[O-])cc2)CC1 (stereo not drawn) -24.2%
CCC(=O)Nc1nc2ccccc2n1CCN(CC)CC -19.6%
CC1=NNC(=O)C1CC(=O)N/N=C/c1sccc1C (stereo not drawn) -14.3%
O=C(CCNC(=O)N1CC(=O)Nc2ccccc21)NCc1ccc(Cl)cc1 -0.431%
Fc1ccc(Nc2nc(NCc3ccccc3)nc3ccsc23)cc1 9.01%
CC(C)(C)c1ccc(S(=O)(=O)Nc2ccc(Cc3ccncc3)cc2)cc1 1.12%
O=c1cc(-c2ccsc2)oc2ccc(-c3ccc4cc[nH]c4c3)cc12 19.7%
CCCN(CCC)Cc1c(C(=O)N/N=C/c2cccs2)nnn1-c1nonc1N -13.7%
CCOC(=O)c1ccc(NC(=O)CCc2nc(-c3cccc(C)c3)no2)cc1 36.1%
c1cncc(-c2nc3ccccc3[nH]2)c1 -13.1%
O=C(NNc1cc(C(F)(F)F)ccc1Cl)c1ccc(=O)[nH]c1 4.72%
COc1ccc([N+](=O)[O-])cc1NC(=O)C(C)OC(=O)c1cccnc1 (stereo not drawn) 1.42%
CC(C)(C)NC(=O)C1c2ccccc2Oc2ccccc21 -7.55%
COc1ccc(N2CCN(C(=O)c3ccc(N4C(=O)NC5CC4(C)Oc4ccccc45)cc3)CC2)cc1 (stereo not drawn) 28.9%
CC(C)(C)CC(=O)Nc1ccc(-c2cn3cccnc3n2)cc1 -23.5%
Cc1csc(NC(=O)CSc2sc3c(O)cc(=O)[nH]c3c2C#N)n1 4.44%
CCOc1ccc(NC(=S)N=Nc2c(O)[nH]c3ccccc23)cc1 -11.6%
Cc1ccc(-c2c[n+](CC(=O)Nc3c(C)cccc3C)c3n2CCC3)cc1 -21.2%
CC(C)C1C(=O)N(Cc2cn(Cc3ccco3)nn2)CCS(=O)(=O)N1Cc1ccc(-c2ccc(Cl)c(Cl)c2)cc1 (stereo not drawn) 21.1%
CCOC(=O)N1CCN(C(=O)CSCc2ccccc2)CC1 7.01%
CCc1c(C)nc2c(-c3ccccc3)c(C)[nH]n2c1=O -21.3%

Compounds above that have an aryl methoxy group:
Max response, negative = inhibition, inactive:
COc1ccc([N+](=O)[O-])cc1NC(=O)C(C)OC(=O)c1cccnc1 (stereo not drawn) 1.42%
COc1ccc(N2CCN(C(=O)c3ccc(N4C(=O)NC5CC4(C)Oc4ccccc45)cc3)CC2)cc1 (stereo not drawn) 28.9%

Grouped by structure, the entries above with a nitro group on carbon.
Max response, negative = inhibition, inactive:
O=C(CCCN1C(=O)C2CCCCN2C1=O)N1CCN(c2ccc([N+](=O)[O-])cc2)CC1 (stereo not drawn) -24.2%
COc1ccc([N+](=O)[O-])cc1NC(=O)C(C)OC(=O)c1cccnc1 (stereo not drawn) 1.42%

Next part:

Max response, negative = inhibition, inconclusive:
O=C(NCc1ccco1)c1cc2nc(C3CC3)cc(C(F)(F)F)n2n1 -32.9%
CN1CCN(C(=O)c2ccc3c(c2)N(Cc2ccccc2F)C(=O)c2ccccc2S3=O)CC1 (stereo not drawn) -49.4%
OC1CCC(NC(=S)Nc2ccc(SC(F)F)cc2)CC1 (stereo not drawn) -47.6%
O=C(NCCNc1ccc([N+](=O)[O-])cc1)c1ccccc1Cl -42.1%
Cc1ccc2sc(C)[n+](CCCS(=O)(=O)[O-])c2c1 -44.3%
O=C(/C=C/c1ccccc1)Nc1ncn[nH]1 -42.5%
C/C(=N\N1CCN(Cc2ccc(C)cc2)CC1)c1ccco1 -42.9%
Cc1[nH]c(C)c(S(=O)(=O)N2CCN(c3cccc(Cl)c3)CC2)c1C(=O)N1CCCC1 -32.7%
CCN(CC)CCn1c(N)c(S(=O)(=O)c2ccccc2)c2nc3ccccc3nc21 -44.5%
CN(CCNC(=O)c1cc2c(-c3ccccc3F)nn(C)c2s1)C1CCCCC1 -45.4%
CCOC(=O)c1cc2c(ccn2C)n1CC(=O)N1CCN(c2cccc(C(F)(F)F)c2)CC1 -42.4%
COc1ccc(/C=C/C(=O)c2ccc(O)cc2)cc1COc1ccc(F)cc1 -47.5%
COC(=O)c1cccc(NC(=O)CCN2C(=O)C3CC=CCC3C2=O)c1 (stereo not drawn) -32.7%
O=C(COc1ccc(Cl)cc1Cl)Nc1ccccc1F -33%
COc1ccc(NC(=O)NCCCN2CCN(c3ccccc3F)CC2)cc1 -44.1%
COC(CNC(=O)c1ccc2c(=O)n(Cc3ccc4c(c3)OCO4)c(=S)[nH]c2c1)OC -34.9%
Nn1c(Cc2cccc3ccccc23)nnc1SC1CCOC1=O (stereo not drawn) -34%
O=C(Cn1ncc2c1-c1ccccc1OC2)Nc1cccc(Cl)c1 -47%
COc1cccc(CC2(CO)CCCN(Cc3ccc(C)s3)C2)c1 (stereo not drawn) -32.4%
O=C(Oc1ccc(Cl)cc1)N1CCCCC1 -30.7%
Cc1ccc(C2N(c3cccc(Cl)c3)C(=O)C3CCCN32)o1 (stereo not drawn) -46.7%
COC(=O)C1=C(N)Oc2cc(C)n(CC3CCCO3)c(=O)c2C1c1ccc(Cl)cc1 (stereo not drawn) -47%
O=C(NC1CC1)c1ccc2c(c1)C1C3CCC(C3)C1C(c1ccccc1)N2 (stereo not drawn) -34.3%
COc1cc(/C=C/C(=O)OCC(=O)NCCc2ccc(F)cc2)ccc1OC(F)F -33.1%
Cc1cccc(OCC(=O)Nc2ccc(S(=O)(=O)N3CCCC3)cc2)c1 -44.8%
COCCNC(=O)Cn1ncc2ccsc2c1=O -32.1%
CC(C)c1ccc(N(C(=O)c2ccco2)C(C(=O)NC2CCCC2)c2ccncc2)cc1 (stereo not drawn) -38.2%
COc1ccc(C2C(C(C)=O)=C(C)N=c3s/c(=C\c4ccco4)c(=O)n32)c(OC)c1 (stereo not drawn) -33.5%
O=C(Cc1ccccc1)NC(=S)Nc1ccc2oc(-c3ccccc3F)nc2c1 -48.4%
CCOC(=O)Cn1cc(Cn2c3ccccc3c(=O)n2C(C)C)nn1 -30.2%
O=C(c1cccs1)N1CCc2c([nH]c3ccccc23)C1c1ccccn1 (stereo not drawn) -35.5%
O=C(c1ccccc1)c1ccc(C(=O)N2CCCC(C(F)(F)F)C2)cc1 (stereo not drawn) -34.5%
Oc1ccccc1-c1nnc(COc2ccc(Cl)cc2Cl)o1 -41.6%
CSc1ccc(CN2CCC2(C)C(=O)Nc2ccc3c(c2)OCO3)cc1 (stereo not drawn) -36.8%
COc1ccc(-c2cc([N+](=O)[O-])ccc2OCC(=O)N(C)CC(=O)Nc2ccc(C)cc2)cc1 -46.5%
Fc1ccc(-c2nn(-c3ccccc3)cc2CNCc2ccccc2)cc1 -38.5%
C/C(=N/NC(=O)c1ccccc1O)c1ccc(N2C(=O)C3CCCCC3C2=O)cc1 (stereo not drawn) -34.7%
COc1ccc2c(CN3CCN(C(C)=O)CC3)cc(=O)oc2c1 -37.9%
COc1ccccc1NS(=O)(=O)c1cc(C(=O)NCC(c2ccco2)N(C)C)ccc1C (stereo not drawn) -43.9%
Cc1[nH]c2ccccc2c1SCC(=O)N1CCOCC1 -30.6%
CCS(=O)(=O)c1ccc(O)c(NC(=O)CC2(CC(=O)O)CCCC2)c1 -32.5%
N#CC1(NC(=O)Cn2cc(C(F)(F)F)ccc2=O)CCCC1 -38.9%
CC(C)NC(=O)Cn1c(SCC(=O)c2ccc(F)cc2)nc2ccccc21 -40%
COC(=O)c1sc2ccccc2c1-n1cccc1C(=O)C(=O)Nc1ccc(C)cc1 -30.9%
O=C(NC1CCCCC1)C(c1ccco1)N(Cc1ccco1)C(=O)c1ccco1 (stereo not drawn) -33.3%
Cc1cccc(-c2cc(N3CCCN(C)CC3)n3nccc3n2)c1 -32.8%
C/C(=N\NC(=O)c1ccc(-n2cnnn2)cc1)c1ccc(C)cc1 -39.8%
C[C@]12CC[C@@H]3c4ccc(OC(=O)c5ccccc5)cc4CC[C@H]3[C@@H]1CC[C@@H]2O -32.7%
O=C(CN1C(=O)/C(=C\c2cccc(Cl)c2)Sc2ccccc21)NCCCN1CCOCC1 -41%

Max response, negative = inhibition, active:
Cc1cccc(NC(=S)NNC(=O)c2nn(C)cc2Cl)c1 -98.8%
S=C(NCc1ccc(Cl)cc1)NC1CCN(Cc2ccccc2)CC1 -65.9%
N#Cc1ccc(OCC(O)CN2CCN(C(c3ccccc3)c3ccccc3)CC2)cc1 (stereo not drawn) -54.1%
CCN(CC)CCCNC(=O)c1cc2c(Cl)nc3ccccc3c2s1 -53.6%
CC(C)C12CN3CC(C(C)C)(CN(C1)C3c1ccccc1)C2O (stereo not drawn) -83.8%
O=C(Nc1ccccc1C(=O)NC(Cc1c[nH]c2ccccc12)C(=O)O)c1ccco1 (stereo not drawn) -54.5%
O=c1c2ccccc2nc(SCCN2CCCCC2)n1CCc1ccccc1 -56.1%
Cn1cc(CN2CCC(n3nccc3NC(=O)c3ccccc3Cl)CC2)c2ccccc21 -52.1%
CN1CCN(C(c2ccccc2)c2ccccc2)CC1 -80.3%
O=C(Nc1nc(-c2ccccc2)cs1)C1CCCO1 (stereo not drawn) -90.8%
COC(=O)c1ccccc1NC(=S)NC(NC(=O)c1ccccc1[N+](=O)[O-])C(Cl)(Cl)Cl (stereo not drawn) -50.6%
COc1cccc(C(=O)NCCN2CCC(n3c(=O)[nH]c4ccccc43)CC2)c1 -78.2%
COc1cc(C2NC(=O)C(C#N)=C(S)N2c2ccccc2)ccc1OC(C)C (stereo not drawn) -66.8%
CN(CCO)c1cc(Sc2nc3ccccc3s2)c2nonc2c1[N+](=O)[O-] -84.1%
